Source: PubChem BioAssay AID587 (National Center for Advancing Translational Sciences (NCATS), 2007)
Where “and” joins values, the source holds several entries; their conditions need not be identical. Identical values can stand only once. Out of some 59,000 compounds screened, about 35 (0.06%) were called active. Inconclusive means that the source gave no clear call. Such entries were picked first, then a sample of the others. No stated cut-off is given here; in the data, active means max dye-equivalent concentration above about 10 nM; inconclusive means between about 1.1 nM and that limit; inactive means weaker than that.

Assay: qHTS Assay for Spectroscopic Profiling in Texas Red Spectral Region
Conditions: Compound fluorescence, Texas Red channel, 547/618 nm; hits give high values
Method in brief: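 qHTS profiling of intrinsic compound fluorescence; 100 mM Tris pH 8.0; 15 min RT; ex 547 / em 618 nm; response expressed as Texas Red dye-equivalent concentration from six-point plate standard.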

**Q.** With `CC(C)=C[C@H]1[C@@H](C(=O)OCc2cc3c(cc2Cl)OCO3)C1(C)C` as the molecule, how does the max dye-equivalent concentration read?
**A.** The max dye-equivalent concentration was inconclusive: 1.9e-09 M.

**Q.** For `CCOP(=S)(OCC)c1ccc(N(C)C)cc1`, which max dye-equivalent concentration is on record?
**A.** Its max dye-equivalent concentration is inconclusive: 1.4e-09 M.

**Q.** Which max dye-equivalent concentration does the source give for `CCOC(=O)C1=C(N)OC(C)=C(C(=O)OCCOC)C12C(=O)Nc1ccccc12` (stereo unspecified) here?
**A.** The max dye-equivalent concentration was inconclusive: 1.2e-09 M.

**Q.** For `CC(C)Cn1cc(C(=O)N2CCC3(CC2)OCCO3)c2c3ccccc3n(C)c2c1=O`, which max dye-equivalent concentration is on record?
**A.** The max dye-equivalent concentration was inconclusive: 2.5e-09 M.

**Q.** With `O=c1[nH]c(=O)n(Cc2ccco2)c(O)c1C=NCc1ccco1` as the molecule, how does the max dye-equivalent concentration read?
**A.** Its max dye-equivalent concentration is inconclusive: 1.2e-09 M.

**Q.** For `CCC1(C)CC(=O)NC(=O)C1`, which max dye-equivalent concentration is on record?
**A.** The max dye-equivalent concentration was inconclusive: 1.5e-09 M.

**Q.** Which max dye-equivalent concentration does the source give for `C=CCN1CCc2cccc3c2[C@@H]1Cc1ccc(O)c(O)c1-3` here?
**A.** Its max dye-equivalent concentration is “inactive”.

**Q.** With `C[C@@H]1[C@H]2C=C[C@@H]1[C@@H](c1c3ccc(=O)c(O)c-3oc3c(O)c(O)ccc13)[C@@H]2C(=O)O` as the molecule, how does the max dye-equivalent concentration read?
**A.** The max dye-equivalent concentration was “inactive”.

**Q.** Which max dye-equivalent concentration does the source give for `COc1ccc(-c2nc(CSCC(=O)N3CCC4(CC3)OCCO4)c(C)o2)cc1OC` here?
**A.** Its max dye-equivalent concentration is inconclusive: 1.4e-09 M.

**Q.** For `O=C1NC(=O)[C@]2(Cc3ccccc3N3CCN(c4ccccc4)CC32)C(=O)N1Cc1ccccc1` (stereo partly specified), which max dye-equivalent concentration is on record?
**A.** The max dye-equivalent concentration was inconclusive: 1.4e-09 M.

**Q.** Which max dye-equivalent concentration does the source give for `COc1ccccc1N=C1SCCCN1C` here?
**A.** Its max dye-equivalent concentration is inconclusive: 1.1e-09 M.

**Q.** Which max dye-equivalent concentration does the source give for `CC(=O)OC1(c2ccc(C)cc2)CN2CCC1c1ccccc12` (stereo unspecified) here?
**A.** Its max dye-equivalent concentration is inconclusive: 1.7e-09 M.

**Q.** Which max dye-equivalent concentration does the source give for `COc1ccc2c(c1)[C@]13CCCC[C@@H]1[C@H](C2)NCC3` here?
**A.** Its max dye-equivalent concentration is “inactive”.

**Q.** Which max dye-equivalent concentration does the source give for `CC(C)N(CC[C@@](C(N)=O)(c1ccccc1)c1ccccn1)C(C)C` here?
**A.** Its max dye-equivalent concentration is inconclusive: 1.7e-09 M and inconclusive: 1.3e-09 M.

**Q.** For `CCOC(=O)c1c(N)n(CCN2CCCCC2)c2nc3ccccc3nc12`, which max dye-equivalent concentration is on record?
**A.** Its max dye-equivalent concentration is “inactive”.

**Q.** For `COc1ccccc1N1CCNCC1`, which max dye-equivalent concentration is on record?
**A.** The max dye-equivalent concentration was inconclusive: 1.5e-09 M.

**Q.** For `CC(=O)[C@H]1CC[C@H]2[C@@H]3CC[C@H]4C[C@H](O)CC[C@]4(C)[C@H]3C(=O)C[C@]12C`, which max dye-equivalent concentration is on record?
**A.** The max dye-equivalent concentration was inconclusive: 1.4e-09 M.

**Q.** Which max dye-equivalent concentration does the source give for `CCC(=NC1CC1)c1c(O)n(-c2ccc(OC)cc2)c(=O)[nH]c1=O` here?
**A.** Its max dye-equivalent concentration is inconclusive: 2.1e-09 M.

**Q.** For `COCCn1cc(C(=O)N2CCC3(CC2)OCCO3)c2c3ccccc3n(C)c2c1=O`, which max dye-equivalent concentration is on record?
**A.** The max dye-equivalent concentration was inconclusive: 1.3e-09 M.

**Q.** Which max dye-equivalent concentration does the source give for `C=CCN1CC[C@]23c4c5ccc(O)c4O[C@@H]2C(=O)CC[C@@]3(O)[C@H]1C5` here?
**A.** The max dye-equivalent concentration was “inactive”.

**Q.** With `Cc1[nH]c2c(C(F)(F)F)cccc2c1CCN` as the molecule, how does the max dye-equivalent concentration read?
**A.** The max dye-equivalent concentration was inconclusive: 1.5e-09 M.

**Q.** For `CCc1nc2ccccc2c(=O)n1-c1cccc(OC)c1`, which max dye-equivalent concentration is on record?
**A.** Its max dye-equivalent concentration is inconclusive: 1.2e-09 M.

**Q.** For `OCC1(CO)COC(c2cccnc2)N1` (stereo unspecified), which max dye-equivalent concentration is on record?
**A.** Its max dye-equivalent concentration is inconclusive: 1.2e-09 M.

**Q.** With `CCN(CC)CCCN=C(C)c1c(O)n(C2CCCCC2)c(=O)[nH]c1=O` as the molecule, how does the max dye-equivalent concentration read?
**A.** Its max dye-equivalent concentration is inconclusive: 1.6e-09 M.

**Q.** For `COC(=O)c1c(N)n(Cc2ccc(OC)cc2)c2nc3ccccc3nc12`, which max dye-equivalent concentration is on record?
**A.** The max dye-equivalent concentration was inconclusive: 1.1e-09 M.

**Q.** Which max dye-equivalent concentration does the source give for `COc1ccc(C[C@@H]2NC[C@H](O)[C@@H]2OC(C)=O)cc1` here?
**A.** The max dye-equivalent concentration was inconclusive: 1.5e-09 M.

**Q.** With `CCc1nnc(NC(=O)CCc2nc(C3=CCN(C)CC3)no2)s1` as the molecule, how does the max dye-equivalent concentration read?
**A.** Its max dye-equivalent concentration is inconclusive: 1.1e-09 M.

**Q.** With `O=C(O)Cc1cnc[nH]1` as the molecule, how does the max dye-equivalent concentration read?
**A.** Its max dye-equivalent concentration is inconclusive: 1.2e-09 M.

**Q.** With `CCN(CC)C(=O)N[C@@H]1C[C@H]2c3cccc4[nH]cc(c34)C[C@@H]2N(C)C1` as the molecule, how does the max dye-equivalent concentration read?
**A.** Its max dye-equivalent concentration is “inactive”.

**Q.** With `COCCOC(=O)c1c(N)n(Cc2ccccc2)c2nc3ccccc3nc12` as the molecule, how does the max dye-equivalent concentration read?
**A.** Its max dye-equivalent concentration is inconclusive: 1.1e-09 M.

**Q.** For `COc1ccc(CCN)cc1O`, which max dye-equivalent concentration is on record?
**A.** The max dye-equivalent concentration was inconclusive: 1.1e-09 M.

**Q.** Which max dye-equivalent concentration does the source give for `ClC1=CCC2CN(CCN3CCCCC3)CC2C1` (stereo unspecified) here?
**A.** The max dye-equivalent concentration was inconclusive: 1.8e-09 M.

**Q.** For `N[C@@H](CSC1c2ccccc2-c2ccccc21)C(=O)O`, which max dye-equivalent concentration is on record?
**A.** Its max dye-equivalent concentration is “inactive”.

**Q.** For `CCCCn1c(O)c(C=Nc2c(C)n(C)n(-c3ccccc3)c2=O)c(=O)[nH]c1=O`, which max dye-equivalent concentration is on record?
**A.** Its max dye-equivalent concentration is inconclusive: 1.1e-09 M.

**Q.** With `CCOc1ccccc1C1SCC(=O)Nc2c1c(=O)[nH]n2C(CC)CC` (stereo unspecified) as the molecule, how does the max dye-equivalent concentration read?
**A.** Its max dye-equivalent concentration is inconclusive: 1.2e-09 M.

**Q.** For `O=C1C[C@H]2OCCC=C3CN4CC[C@@]56c7ccccc7N1[C@@H]5[C@H]2[C@H]3C[C@@H]46`, which max dye-equivalent concentration is on record?
**A.** The max dye-equivalent concentration was “inactive”.
